Targets include KAISO BTB domain (human) (UniProt Q86T24); LRF BTB domain (human) (UniProt O95365); PLZF BTB domain (human) (UniProt Q05516); MIZ1 BTB domain (human) (UniProt Q13105); ThPOK BTB domain (human).
Test in all cases: two-hybrid
In experiment [1] the target is PATZ1 BTB domain (murine Patz1) (mouse) (UniProt Q5NBY9).
The next experiment concerns the target T1, PATZ2 BTB domain (human) (UniProt O43167).
T1 sequence: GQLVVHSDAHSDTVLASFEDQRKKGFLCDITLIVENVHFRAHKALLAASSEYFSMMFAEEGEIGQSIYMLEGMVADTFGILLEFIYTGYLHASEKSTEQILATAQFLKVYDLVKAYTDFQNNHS

Protein sequences, listed by entry. Tags and fused reporters are not part of them. Lines headed by an entry give the natural chain unless they say otherwise; changes in a name come on top.
UniProt Q86T24: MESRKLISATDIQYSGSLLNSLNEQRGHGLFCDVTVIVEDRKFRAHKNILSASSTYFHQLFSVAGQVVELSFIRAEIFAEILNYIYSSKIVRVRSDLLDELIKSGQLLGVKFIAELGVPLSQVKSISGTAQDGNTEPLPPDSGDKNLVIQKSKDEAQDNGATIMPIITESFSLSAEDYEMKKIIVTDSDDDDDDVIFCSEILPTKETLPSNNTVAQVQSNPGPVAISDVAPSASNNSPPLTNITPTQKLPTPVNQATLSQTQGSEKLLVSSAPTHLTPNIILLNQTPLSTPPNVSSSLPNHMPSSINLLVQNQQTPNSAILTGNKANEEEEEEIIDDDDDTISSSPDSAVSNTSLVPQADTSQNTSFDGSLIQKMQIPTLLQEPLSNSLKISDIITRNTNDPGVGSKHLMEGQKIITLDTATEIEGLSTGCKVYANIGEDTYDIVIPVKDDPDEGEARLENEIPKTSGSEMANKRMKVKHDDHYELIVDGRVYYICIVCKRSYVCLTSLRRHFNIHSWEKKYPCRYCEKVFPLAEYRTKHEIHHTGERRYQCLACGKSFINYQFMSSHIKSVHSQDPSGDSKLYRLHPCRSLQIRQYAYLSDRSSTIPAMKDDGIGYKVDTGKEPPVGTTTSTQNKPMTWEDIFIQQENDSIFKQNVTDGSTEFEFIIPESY
UniProt O95365: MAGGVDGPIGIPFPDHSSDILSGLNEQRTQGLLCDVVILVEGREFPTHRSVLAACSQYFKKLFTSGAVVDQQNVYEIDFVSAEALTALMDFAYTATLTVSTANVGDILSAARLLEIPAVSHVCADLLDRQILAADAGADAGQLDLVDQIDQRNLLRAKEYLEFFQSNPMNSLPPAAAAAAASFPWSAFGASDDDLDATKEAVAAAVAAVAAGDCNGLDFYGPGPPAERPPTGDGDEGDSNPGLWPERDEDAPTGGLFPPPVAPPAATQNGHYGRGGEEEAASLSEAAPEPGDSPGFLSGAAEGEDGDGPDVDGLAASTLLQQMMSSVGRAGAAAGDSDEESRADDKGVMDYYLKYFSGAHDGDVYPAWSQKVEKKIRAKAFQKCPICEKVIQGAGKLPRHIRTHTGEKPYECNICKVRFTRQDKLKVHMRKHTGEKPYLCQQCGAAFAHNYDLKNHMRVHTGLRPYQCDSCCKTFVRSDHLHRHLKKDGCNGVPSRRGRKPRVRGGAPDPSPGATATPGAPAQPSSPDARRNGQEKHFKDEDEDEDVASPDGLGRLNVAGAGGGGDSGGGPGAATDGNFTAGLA
UniProt Q05516: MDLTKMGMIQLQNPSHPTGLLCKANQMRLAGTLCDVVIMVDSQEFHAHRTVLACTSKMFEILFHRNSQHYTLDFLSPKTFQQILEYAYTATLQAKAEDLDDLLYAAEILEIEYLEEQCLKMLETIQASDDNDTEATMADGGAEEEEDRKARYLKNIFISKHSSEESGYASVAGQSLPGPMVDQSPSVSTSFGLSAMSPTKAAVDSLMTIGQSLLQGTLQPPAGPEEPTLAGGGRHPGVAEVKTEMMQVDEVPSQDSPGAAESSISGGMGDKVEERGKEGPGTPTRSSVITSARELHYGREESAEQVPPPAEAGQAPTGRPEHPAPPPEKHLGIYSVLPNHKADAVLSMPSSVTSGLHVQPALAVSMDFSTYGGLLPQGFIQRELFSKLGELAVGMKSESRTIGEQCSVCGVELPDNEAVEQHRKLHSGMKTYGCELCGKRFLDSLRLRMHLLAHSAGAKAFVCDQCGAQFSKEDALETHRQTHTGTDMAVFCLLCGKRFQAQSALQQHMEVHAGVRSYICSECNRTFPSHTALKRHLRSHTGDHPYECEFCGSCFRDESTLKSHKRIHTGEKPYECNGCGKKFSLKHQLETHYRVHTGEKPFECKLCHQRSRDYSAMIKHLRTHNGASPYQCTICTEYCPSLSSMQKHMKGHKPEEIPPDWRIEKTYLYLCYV
UniProt Q13105: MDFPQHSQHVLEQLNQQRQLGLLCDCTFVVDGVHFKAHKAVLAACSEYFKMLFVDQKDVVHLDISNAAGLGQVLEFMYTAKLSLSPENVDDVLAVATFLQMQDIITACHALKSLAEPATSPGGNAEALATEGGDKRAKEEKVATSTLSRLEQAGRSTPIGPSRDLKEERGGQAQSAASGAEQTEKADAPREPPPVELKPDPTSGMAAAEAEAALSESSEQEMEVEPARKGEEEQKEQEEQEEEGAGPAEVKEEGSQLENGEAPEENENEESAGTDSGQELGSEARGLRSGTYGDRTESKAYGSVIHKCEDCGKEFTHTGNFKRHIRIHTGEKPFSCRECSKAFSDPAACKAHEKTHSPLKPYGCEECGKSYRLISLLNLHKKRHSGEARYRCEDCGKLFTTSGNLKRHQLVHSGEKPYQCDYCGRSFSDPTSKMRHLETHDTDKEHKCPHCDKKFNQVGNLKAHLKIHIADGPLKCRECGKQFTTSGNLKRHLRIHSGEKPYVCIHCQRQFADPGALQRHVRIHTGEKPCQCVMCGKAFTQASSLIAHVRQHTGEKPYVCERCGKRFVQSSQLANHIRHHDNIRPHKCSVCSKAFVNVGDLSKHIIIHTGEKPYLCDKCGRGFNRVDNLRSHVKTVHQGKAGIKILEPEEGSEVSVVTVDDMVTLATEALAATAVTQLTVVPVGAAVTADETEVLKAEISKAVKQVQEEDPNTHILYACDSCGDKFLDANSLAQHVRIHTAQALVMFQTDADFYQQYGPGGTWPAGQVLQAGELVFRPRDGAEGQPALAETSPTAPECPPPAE
UniProt Q5NBY9: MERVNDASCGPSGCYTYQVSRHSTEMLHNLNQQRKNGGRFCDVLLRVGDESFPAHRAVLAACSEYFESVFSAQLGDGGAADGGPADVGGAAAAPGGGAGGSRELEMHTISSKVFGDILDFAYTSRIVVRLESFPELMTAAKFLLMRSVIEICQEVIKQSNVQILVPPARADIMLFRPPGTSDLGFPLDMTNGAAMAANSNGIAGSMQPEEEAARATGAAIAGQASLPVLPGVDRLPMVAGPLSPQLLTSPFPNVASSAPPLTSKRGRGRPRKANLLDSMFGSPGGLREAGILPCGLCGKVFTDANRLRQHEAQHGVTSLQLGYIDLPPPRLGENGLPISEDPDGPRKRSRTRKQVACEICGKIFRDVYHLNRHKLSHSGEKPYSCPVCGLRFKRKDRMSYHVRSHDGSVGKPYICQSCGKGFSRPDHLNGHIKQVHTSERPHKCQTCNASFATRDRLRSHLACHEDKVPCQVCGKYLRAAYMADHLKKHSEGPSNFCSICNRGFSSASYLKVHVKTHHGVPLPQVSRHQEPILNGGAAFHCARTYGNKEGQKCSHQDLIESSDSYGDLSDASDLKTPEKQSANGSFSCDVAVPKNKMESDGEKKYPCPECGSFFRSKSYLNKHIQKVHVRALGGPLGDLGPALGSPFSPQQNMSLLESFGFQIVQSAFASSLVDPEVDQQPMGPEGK

These are yes or no findings as the source states them, for the method shown. For some assays here: Binding calls can cover weak binding; strength is not graded here.

For “MIZ1 BTB domain (from UniProt Q13105) (domain or fragment)”, the binding result (with KAISO BTB domain (human); with LRF BTB domain (human); in experiment [1]; with PATZ2 BTB domain (human); with PLZF BTB domain (human)) was “no binding” throughout.
As to “KAISO BTB domain (from UniProt Q86T24) (domain or fragment)”, the binding entry (in the experiment with LRF BTB domain (human); in the experiment with MIZ1 BTB domain (human); in experiment [1]; with PATZ2 BTB domain (human); in the experiment with PLZF BTB domain (human)) was “no binding” each time.
On to “LRF BTB domain (from UniProt O95365) (domain or fragment)”, for which the binding entry (with KAISO BTB domain (human); with MIZ1 BTB domain (human); in experiment [1]; in the experiment with PATZ2 BTB domain (human); in the experiment with PLZF BTB domain (human)) was “no binding” in each case.
Consider “PLZF BTB domain (from UniProt Q05516) (domain or fragment)”, for which the binding entry (with KAISO BTB domain (human); in the experiment with LRF BTB domain (human); with MIZ1 BTB domain (human); in experiment [1]; with PATZ2 BTB domain (human)) was “no binding” each time.
For the molecule “ThPOK BTB domain (human) (domain or fragment)”, the binding result in the experiment with PATZ2 BTB domain (human) was “no binding”.
On to “PATZ1 BTB domain (murine Patz1) (from UniProt Q5NBY9) (domain or fragment)”, for which the binding entry is “no binding” in the experiment with KAISO BTB domain (human); “no binding” in the experiment with LRF BTB domain (human); “no binding” in the experiment with MIZ1 BTB domain (human); “binds” with PATZ2 BTB domain (human); “no binding” with PLZF BTB domain (human).

B1: PATZ2 BTB domain (domain or fragment, UniProt O43167 10-133)
chain: T1 sequence
Turning to B1, the binding result was “no binding” with KAISO BTB domain (human); “no binding” with LRF BTB domain (human); “no binding” with MIZ1 BTB domain (human); “binds” in experiment [1]; “no binding” with PLZF BTB domain (human); “no binding” with ThPOK BTB domain (human).

(Values after paper doi:10.1101/2021.12.17.472994.)
